Results from the supplement of paper PMC12819154, “High-throughput peptide-centric local stability assay extends protein–ligand identification to membrane proteins, tissues and bacteria” (Nature Structural & Molecular Biology, 2025).
This is one part of the list. Small differences around the control level are noise.

Chains of the proteins cited; added tags and fusions are not shown. Lines headed by an entry give the natural chain unless they say otherwise; changes in a name come on top.
UniProt Q6P3A8: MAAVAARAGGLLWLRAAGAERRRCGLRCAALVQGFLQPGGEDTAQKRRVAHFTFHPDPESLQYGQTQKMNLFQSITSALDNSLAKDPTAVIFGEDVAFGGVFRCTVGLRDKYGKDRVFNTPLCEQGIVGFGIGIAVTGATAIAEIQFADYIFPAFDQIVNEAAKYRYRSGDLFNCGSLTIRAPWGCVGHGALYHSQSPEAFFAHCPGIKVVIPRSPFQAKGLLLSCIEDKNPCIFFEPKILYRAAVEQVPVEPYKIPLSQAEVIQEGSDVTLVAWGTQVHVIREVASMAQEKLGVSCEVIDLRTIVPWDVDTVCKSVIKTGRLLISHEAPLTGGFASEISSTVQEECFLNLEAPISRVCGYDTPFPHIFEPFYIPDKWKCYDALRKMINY
UniProt Q6BCL1: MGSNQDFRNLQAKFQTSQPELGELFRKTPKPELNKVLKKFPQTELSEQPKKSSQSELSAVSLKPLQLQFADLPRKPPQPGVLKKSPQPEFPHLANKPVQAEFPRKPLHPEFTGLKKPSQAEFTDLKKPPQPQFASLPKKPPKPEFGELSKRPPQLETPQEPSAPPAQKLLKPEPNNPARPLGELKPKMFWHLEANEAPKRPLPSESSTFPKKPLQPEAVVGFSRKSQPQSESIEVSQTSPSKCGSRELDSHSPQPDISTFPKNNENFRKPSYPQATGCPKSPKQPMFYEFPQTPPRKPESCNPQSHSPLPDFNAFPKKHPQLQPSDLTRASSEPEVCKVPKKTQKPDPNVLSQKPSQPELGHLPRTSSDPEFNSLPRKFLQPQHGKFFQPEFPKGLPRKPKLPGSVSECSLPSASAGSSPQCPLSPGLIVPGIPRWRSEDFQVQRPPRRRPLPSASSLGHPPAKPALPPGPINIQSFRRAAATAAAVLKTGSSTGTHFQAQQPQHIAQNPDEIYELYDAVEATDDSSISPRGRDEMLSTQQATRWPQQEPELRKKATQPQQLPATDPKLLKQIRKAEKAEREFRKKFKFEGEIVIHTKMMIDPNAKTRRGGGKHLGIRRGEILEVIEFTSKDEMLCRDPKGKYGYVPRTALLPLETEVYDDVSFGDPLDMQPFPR
UniProt Q6TXD4: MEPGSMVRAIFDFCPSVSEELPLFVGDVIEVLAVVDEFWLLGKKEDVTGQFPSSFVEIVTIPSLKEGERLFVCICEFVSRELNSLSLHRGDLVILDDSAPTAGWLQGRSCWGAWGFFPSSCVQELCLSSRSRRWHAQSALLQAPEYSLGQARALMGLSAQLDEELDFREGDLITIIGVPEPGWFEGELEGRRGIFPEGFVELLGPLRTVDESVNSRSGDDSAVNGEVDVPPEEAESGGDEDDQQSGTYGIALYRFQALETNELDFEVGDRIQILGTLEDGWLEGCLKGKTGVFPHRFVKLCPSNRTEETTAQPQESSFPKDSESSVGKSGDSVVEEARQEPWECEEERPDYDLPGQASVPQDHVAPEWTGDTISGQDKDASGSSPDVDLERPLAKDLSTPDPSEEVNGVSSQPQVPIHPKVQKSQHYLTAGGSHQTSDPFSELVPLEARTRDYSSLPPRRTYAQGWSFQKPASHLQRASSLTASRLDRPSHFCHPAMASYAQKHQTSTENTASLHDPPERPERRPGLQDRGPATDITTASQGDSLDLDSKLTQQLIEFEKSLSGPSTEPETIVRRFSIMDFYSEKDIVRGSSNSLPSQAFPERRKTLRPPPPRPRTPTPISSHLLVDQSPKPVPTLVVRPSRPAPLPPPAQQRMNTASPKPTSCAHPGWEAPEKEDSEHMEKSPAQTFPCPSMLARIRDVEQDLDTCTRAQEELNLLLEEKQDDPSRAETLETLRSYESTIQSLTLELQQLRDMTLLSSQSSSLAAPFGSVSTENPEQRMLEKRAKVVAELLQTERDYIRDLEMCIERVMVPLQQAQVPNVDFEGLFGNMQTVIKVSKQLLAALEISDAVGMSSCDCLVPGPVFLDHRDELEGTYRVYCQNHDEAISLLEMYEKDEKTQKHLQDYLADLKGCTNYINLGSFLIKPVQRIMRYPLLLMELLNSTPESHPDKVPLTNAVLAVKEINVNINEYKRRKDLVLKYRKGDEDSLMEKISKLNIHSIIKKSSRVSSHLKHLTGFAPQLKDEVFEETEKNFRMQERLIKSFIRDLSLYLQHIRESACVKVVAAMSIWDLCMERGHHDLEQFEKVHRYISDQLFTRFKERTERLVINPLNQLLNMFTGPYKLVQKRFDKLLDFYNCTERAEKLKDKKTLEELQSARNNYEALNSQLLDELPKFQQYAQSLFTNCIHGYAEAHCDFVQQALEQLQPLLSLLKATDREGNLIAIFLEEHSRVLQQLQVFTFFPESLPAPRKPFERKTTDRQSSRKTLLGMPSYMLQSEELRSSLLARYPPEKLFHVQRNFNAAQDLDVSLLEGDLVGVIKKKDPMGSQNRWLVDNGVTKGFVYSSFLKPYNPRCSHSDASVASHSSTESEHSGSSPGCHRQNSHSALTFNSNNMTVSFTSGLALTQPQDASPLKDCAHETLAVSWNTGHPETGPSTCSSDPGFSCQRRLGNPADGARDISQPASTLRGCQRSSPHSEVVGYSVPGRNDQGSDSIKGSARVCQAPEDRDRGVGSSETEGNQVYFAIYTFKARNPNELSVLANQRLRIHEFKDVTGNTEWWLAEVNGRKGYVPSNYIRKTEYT
UniProt Q6PDL0, whole entry: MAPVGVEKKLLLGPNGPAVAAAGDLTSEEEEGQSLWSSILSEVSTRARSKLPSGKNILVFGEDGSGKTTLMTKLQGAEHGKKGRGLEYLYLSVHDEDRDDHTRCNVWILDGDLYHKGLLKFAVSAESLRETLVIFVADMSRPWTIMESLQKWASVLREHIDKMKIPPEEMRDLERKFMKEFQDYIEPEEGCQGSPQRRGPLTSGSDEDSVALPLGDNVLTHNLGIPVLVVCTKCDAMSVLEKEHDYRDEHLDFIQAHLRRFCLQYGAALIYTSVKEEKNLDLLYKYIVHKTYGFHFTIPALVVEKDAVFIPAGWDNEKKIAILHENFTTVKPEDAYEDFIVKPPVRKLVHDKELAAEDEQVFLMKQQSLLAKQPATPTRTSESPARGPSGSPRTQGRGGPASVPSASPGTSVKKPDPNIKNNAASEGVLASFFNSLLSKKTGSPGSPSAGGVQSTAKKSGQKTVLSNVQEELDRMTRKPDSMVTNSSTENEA
UniProt Q6T264: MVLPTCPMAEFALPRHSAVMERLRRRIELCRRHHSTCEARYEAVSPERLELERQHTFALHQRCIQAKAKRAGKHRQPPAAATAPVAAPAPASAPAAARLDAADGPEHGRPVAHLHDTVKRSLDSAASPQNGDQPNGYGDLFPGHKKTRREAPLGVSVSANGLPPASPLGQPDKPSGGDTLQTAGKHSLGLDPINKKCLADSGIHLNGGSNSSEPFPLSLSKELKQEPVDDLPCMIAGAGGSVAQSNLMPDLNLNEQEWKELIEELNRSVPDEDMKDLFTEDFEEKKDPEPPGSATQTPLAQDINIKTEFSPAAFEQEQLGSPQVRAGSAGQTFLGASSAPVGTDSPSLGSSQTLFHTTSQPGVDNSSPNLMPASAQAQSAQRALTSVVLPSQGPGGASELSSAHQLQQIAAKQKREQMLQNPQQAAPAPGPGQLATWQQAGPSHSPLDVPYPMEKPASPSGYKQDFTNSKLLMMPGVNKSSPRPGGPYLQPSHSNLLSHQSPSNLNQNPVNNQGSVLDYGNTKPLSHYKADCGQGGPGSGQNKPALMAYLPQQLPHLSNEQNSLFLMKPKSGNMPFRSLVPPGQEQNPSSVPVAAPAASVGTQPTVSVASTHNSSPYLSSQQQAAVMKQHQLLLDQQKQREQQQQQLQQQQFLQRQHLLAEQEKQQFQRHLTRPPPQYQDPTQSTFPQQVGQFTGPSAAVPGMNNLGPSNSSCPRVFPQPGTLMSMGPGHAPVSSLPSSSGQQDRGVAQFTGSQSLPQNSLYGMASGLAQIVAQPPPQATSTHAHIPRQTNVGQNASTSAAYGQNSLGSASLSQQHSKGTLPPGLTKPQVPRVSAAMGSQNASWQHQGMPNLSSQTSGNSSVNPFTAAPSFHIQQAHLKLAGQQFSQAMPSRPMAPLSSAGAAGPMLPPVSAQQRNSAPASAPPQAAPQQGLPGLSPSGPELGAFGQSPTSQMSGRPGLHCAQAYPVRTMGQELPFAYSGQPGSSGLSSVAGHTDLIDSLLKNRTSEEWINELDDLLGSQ
UniProt Q6PDK8: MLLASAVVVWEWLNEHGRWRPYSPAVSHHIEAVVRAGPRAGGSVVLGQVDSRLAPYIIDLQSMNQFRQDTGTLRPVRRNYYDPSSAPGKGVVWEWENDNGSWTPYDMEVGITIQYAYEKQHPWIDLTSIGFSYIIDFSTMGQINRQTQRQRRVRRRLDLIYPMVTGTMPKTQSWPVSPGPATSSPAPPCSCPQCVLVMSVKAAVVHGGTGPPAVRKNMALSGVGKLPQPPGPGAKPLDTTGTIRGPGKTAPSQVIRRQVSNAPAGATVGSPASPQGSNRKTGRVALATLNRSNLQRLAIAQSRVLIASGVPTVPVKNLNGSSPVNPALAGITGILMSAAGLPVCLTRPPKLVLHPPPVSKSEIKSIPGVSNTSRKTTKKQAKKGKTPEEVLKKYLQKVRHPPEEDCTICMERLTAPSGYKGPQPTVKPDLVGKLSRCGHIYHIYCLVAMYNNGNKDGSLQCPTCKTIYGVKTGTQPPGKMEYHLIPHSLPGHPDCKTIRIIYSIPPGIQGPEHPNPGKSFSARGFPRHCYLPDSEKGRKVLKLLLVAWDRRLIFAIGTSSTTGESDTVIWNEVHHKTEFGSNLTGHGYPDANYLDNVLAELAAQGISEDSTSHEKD
UniProt Q6PD21: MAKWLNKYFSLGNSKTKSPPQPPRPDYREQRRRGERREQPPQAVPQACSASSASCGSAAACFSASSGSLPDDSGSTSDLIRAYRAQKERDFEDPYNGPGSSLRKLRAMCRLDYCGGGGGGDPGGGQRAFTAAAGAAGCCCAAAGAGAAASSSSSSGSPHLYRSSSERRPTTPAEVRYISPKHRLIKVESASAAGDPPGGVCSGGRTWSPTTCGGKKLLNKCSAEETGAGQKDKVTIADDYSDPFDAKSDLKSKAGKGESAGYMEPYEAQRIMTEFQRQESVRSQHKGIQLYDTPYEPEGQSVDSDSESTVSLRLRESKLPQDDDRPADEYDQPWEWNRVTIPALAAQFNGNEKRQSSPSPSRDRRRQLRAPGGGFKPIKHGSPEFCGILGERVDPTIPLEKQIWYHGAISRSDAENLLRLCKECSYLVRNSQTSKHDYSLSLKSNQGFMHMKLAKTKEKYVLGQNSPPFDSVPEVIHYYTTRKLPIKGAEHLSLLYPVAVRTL
UniProt Q6NVE9: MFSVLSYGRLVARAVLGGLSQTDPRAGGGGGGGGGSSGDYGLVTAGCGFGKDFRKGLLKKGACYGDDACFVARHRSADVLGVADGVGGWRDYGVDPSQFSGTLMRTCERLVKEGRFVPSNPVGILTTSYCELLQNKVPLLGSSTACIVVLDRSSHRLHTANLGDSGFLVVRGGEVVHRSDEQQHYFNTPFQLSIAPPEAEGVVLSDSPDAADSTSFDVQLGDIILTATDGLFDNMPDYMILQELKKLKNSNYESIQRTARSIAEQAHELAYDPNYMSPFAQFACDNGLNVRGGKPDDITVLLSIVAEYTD
UniProt Q6R891: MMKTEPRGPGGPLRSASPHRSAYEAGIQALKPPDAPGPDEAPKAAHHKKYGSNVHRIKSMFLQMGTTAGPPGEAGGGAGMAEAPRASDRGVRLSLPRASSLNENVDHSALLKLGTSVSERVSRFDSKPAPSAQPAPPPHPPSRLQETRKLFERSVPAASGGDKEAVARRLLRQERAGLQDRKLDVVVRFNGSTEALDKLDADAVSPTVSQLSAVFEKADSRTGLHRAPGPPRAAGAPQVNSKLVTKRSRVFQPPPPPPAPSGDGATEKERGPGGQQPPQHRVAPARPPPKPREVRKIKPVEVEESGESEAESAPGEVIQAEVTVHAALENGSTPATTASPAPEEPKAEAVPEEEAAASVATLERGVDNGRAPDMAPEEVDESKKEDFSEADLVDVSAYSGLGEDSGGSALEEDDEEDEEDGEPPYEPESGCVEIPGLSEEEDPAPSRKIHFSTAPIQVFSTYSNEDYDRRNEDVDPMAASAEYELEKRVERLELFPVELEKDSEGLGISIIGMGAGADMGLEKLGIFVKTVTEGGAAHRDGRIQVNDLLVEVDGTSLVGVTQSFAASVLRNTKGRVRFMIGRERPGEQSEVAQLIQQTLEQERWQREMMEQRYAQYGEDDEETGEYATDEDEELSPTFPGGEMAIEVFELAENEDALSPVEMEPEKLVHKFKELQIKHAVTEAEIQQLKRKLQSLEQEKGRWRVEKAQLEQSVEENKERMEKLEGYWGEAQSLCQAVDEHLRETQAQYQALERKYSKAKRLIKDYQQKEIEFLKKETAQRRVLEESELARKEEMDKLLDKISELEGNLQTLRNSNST

The targets below were run with CN[C@@H]1C[C@H]2O[C@@](C)([C@@H]1OC)n1c3ccccc3c3c4c(c5c6ccccc6n2c5c31)C(=O)NC4 [staurosporine] (assay: log2 fold change of tryptic peptide abundance, ligand vs vehicle (limited proteolysis) (log2 ratio); higher = more trypsin-susceptible (destabilized)). Conditions: ligand concentration: 20 uM; sample: mouse liver crude lysate; replicate design: treated separately.

Row | Target | log2 fold change
1 | UniProt Q6PIP5 (peptide sequence: VKRPLLDPR, peptide start residue: 10) | 0.0638
2 | UniProt Q6P3A8 (peptide sequence: DKYGKDR, peptide start residue: 110) | -0.149
3 | UniProt Q6BCL1 (peptide sequence: KPPKPEFGELSK, peptide start residue: 139) | -0.447
4 | UniProt Q6TXD4 (peptide sequence: VVAELLQTER, peptide start residue: 787) | 0.329
5 | UniProt Q6P1C1 (peptide sequence: FKEHEDCTLVLHKV, peptide start residue: 476) | -0.131
6 | UniProt Q6PDL0 (peptide sequence: DEHLDFIQAHLRR, peptide start residue: 248) | -0.434
7 | UniProt Q6T264 (peptide sequence: QHQLLLDQQK, peptide start residue: 629) | -0.556
8 | UniProt Q6P9N1 (peptide sequence: AASSTSQSGLSNSSHNCSNK, peptide start residue: 355) | -0.675
9 | UniProt Q6NS86 (peptide sequence: GLHSQGLGR, peptide start residue: 559) | -0.123
10 | UniProt Q6PIX5 (peptide sequence: AAAALVK, peptide start residue: 218) | -0.278
11 | UniProt Q6PAQ4 (peptide sequence: TYSDISSHQGALKPK, peptide start residue: 172) | -0.213
12 | UniProt Q6PDK8 (peptide sequence: AGGSVVLGQVDSR, peptide start residue: 40) | -0.268
13 | UniProt Q6PD21 (peptide sequence: TKSPPQPPRPDYR, peptide start residue: 16) | -0.22
14 | UniProt Q6P9R1 (peptide sequence: VQPFLPAWLAKPSCVKK, peptide start residue: 146) | -0.211
15 | UniProt Q6KAQ7 (peptide sequence: SIAHPEEISSHSQVR, peptide start residue: 39) | -0.255
16 | UniProt Q6PCN7 (peptide sequence: SDTPEELRK, peptide start residue: 728) | -0.342
17 | UniProt Q6NSU3 (peptide sequence: FYLPILVPSAKK, peptide start residue: 155) | 0.223
18 | UniProt Q6P5G3 (peptide sequence: NNGQVYTYPDGK, peptide start residue: 37) | -0.383
19 | UniProt Q6P2B1 (peptide sequence: QVTSAEECKQVCWALR, peptide start residue: 901) | -0.257
20 | UniProt Q6NXH2 (peptide sequence: GAGMTVLPAK, peptide start residue: 78) | -0.032
21 | UniProt Q6NVE9 (peptide sequence: KGACYGDDACFVAR, peptide start residue: 60) | -0.241
22 | UniProt Q6R891 (peptide sequence: AAGAPQVNSK, peptide start residue: 233) | -0.574
23 | UniProt Q6PAL7 (peptide sequence: ASTVSPGGYMVPK, peptide start residue: 1056) | 0.615
24 | UniProt Q6P6J9 (peptide sequence: FSASLAPHFNSLPR, peptide start residue: 206) | -0.264

Some values from the entries so far.
log2 fold change, UniProt Q6P2B1 (peptide sequence: QVTSAEECKQVCWALR, peptide start residue: 901) is entered as -0.257
log2 fold change, UniProt Q6NS86 (peptide sequence: GLHSQGLGR, peptide start residue: 559) is entered as -0.123
